In the supplement of paper PMC5949888:
Most values lie at the floor of the assay. Slopes are relative: functional sequences can read slightly below zero.

Each substance was assayed on Saccharomyces cerevisiae PS128 hsf1 delta, HSF1(1-493) fusion (assay: growth estimate (transactivation domain function in HSF1 fusion, heat-shock survival) (a.u. (slope of normalised read count over time)); higher = stronger growth at 37°C, i.e. more transactivation activity). Details: library: random library.
Description: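 Random 60-nt DNA library encoding peptides of up to 20 aa, fused to the C-terminus of yeast HSF1 residues 1-493 (C-terminal TAD deleted) and expressed from the native HSF1 promoter on a CEN plasmid in hsf1-deleted S. cerevisiae PS128. Cells were selected at 37°C on -trp 5-FOA plates for 0, 2, 4, 6 and 8 days and amplicons were sequenced. Growth estimate is the slope of a robust linear fit of total-sum-normalised read counts (normalised to the first time point) over time, using at least 2 replicates. Sequences are classed functional (TAD activity) above a threshold of -0.13, set from stop-codon control sequences.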
For GPRPNLGAPRVARVRRQ, the growth estimate was under -0.25. With GPRVPWTPTEIRRSRLFSST the growth estimate was -0.0641. Substance GPSFIDSASPVCLISHPVGP has a growth estimate of under -0.25. With GPSHLGVGIPLNSLV the growth estimate was under -0.25. Substance GPSIRDCRCKL has a growth estimate of under -0.25. Work on GPSQAERGRT yielded a growth estimate of under -0.25. With GPSSARSSIPR the growth estimate was under -0.25. For GPSTPAFTSVRIATSTCQLL, the growth estimate was under -0.25. GPTEQVSPFSPSLVG was tested, and the growth estimate was under -0.25. GPTGLRIRNRGVANPRGQQL showed a growth estimate of under -0.25. In the case of GPTHTYISGVLVRPLVFMSR, the growth estimate is reported as under -0.25. Substance GPTKRNVPLGETLRDRKTDP has a growth estimate of under -0.25. GPTTCH was tested, and the growth estimate was under -0.25. GPWR gave a growth estimate of under -0.25. For GPWSKMDY, the growth estimate was under -0.25. For GPYEGDWPRSVYHHADGFPR, the growth estimate was under -0.25. In the case of GPYYTPAMGHTGPSNKKICA, the growth estimate is reported as under -0.25. Substance GQAGHSWFMAPVSHAFSTPN has a growth estimate of -0.241. GQAPRPKGSASVATGTETGE gave a growth estimate of under -0.25. With GQCVSAVLYGGYVPAGLPQG the growth estimate was under -0.25. GQDGSSPDEVAEVIAPLIPV was tested, and the growth estimate was under -0.25. Substance GQENAGQKPGP has a growth estimate of under -0.25. Substance GQENVSFMCKL has a growth estimate of under -0.25. GQFDELAIHSVT showed a growth estimate of under -0.25. For GQFLREDTVGEVGVFNPPTP, the growth estimate was under -0.25. With GQFMGMWASMSARVLFAPFR the growth estimate was under -0.25. For GQGGLYAQSLNHGLYRLSGS, the growth estimate was under -0.25. GQGSTSLRVPVRRPFI was tested, and the growth estimate was under -0.25. With GQHGRIEIASLPFPYIQKRP the growth estimate was under -0.25. GQKAGVSSGEAEVVLQDYQC was tested, and the growth estimate was under -0.25. With GQL the growth estimate was under -0.25. Substance GQLFRACWVSFPNHRMPTSY has a growth estimate of under -0.25. Work on GQLLLTLASLPRLKQSTRSR yielded a growth estimate of under -0.25. GQLTTLVLGFPGWGIQRRRR gave a growth estimate of -0.187. In the case of GQLVGCTDTWDRLRGGAIQF, the growth estimate is reported as -0.25. GQMGDLRV gave a growth estimate of under -0.25. In the case of GQMPNALKSP, the growth estimate is reported as under -0.25. For GQPQVYIVPHVGVAPDSSLS, the growth estimate was under -0.25. GQRLDGGVVRRF was tested, and the growth estimate was under -0.25. In the case of GQSKTTSSAPLIPLNTAVLR, the growth estimate is reported as under -0.25. Substance GQSPWCL has a growth estimate of under -0.25. GQTCET showed a growth estimate of under -0.25. GQTNDPSVHPRRVVVDRIQH showed a growth estimate of under -0.25. In the case of GQTSFVSCRGSSRRSCYRSI, the growth estimate is reported as under -0.25. With GQTVVN the growth estimate was under -0.25. GQVAKECRYSGRSGFNVYEG was tested, and the growth estimate was under -0.25. GQVGLLISRFRKLANSEGVA gave a growth estimate of under -0.25. Work on GQVLAEE yielded a growth estimate of under -0.25. GQVSDWR showed a growth estimate of under -0.25. GRACLQPKGGDFR gave a growth estimate of under -0.25. GRAFR was tested, and the growth estimate was under -0.25. Substance GRAGTLRLVLLP has a growth estimate of under -0.25. Substance GRAGVYREPHGQGTPHPQSR has a growth estimate of under -0.25. Substance GRAIS has a growth estimate of under -0.25. GRALRWARAWSVVVAKPQLG gave a growth estimate of under -0.25. In the case of GRAQSGSASSFSTSCHPSTD, the growth estimate is reported as under -0.25. In the case of GRARAVAQIGVCTLLDGTDA, the growth estimate is reported as under -0.25. With GRATGKFLWIRNEGIWDDVG the growth estimate was under -0.25. Substance GRCFVVVSTIRRPTRIA has a growth estimate of -0.231. Work on GRCTYSSPYGLACFLACLHC yielded a growth estimate of under -0.25. Substance GRCVYFQSVGYRSWGKGTIQ has a growth estimate of under -0.25. GRD gave a growth estimate of under -0.25. GRDEHGGK showed a growth estimate of under -0.25. GREPDREGRETYSPWAHITF showed a growth estimate of under -0.25. GRFPRGGLIRSVGGELAVWD showed a growth estimate of under -0.25. GRFSGAL showed a growth estimate of under -0.25. For GRG, the growth estimate was under -0.25. Work on GRGEACGKAWSGGVATKWGP yielded a growth estimate of under -0.25. In the case of GRGLEGP, the growth estimate is reported as under -0.25. Substance GRGRDS has a growth estimate of under -0.25. GRGRFSQGKLWRRRGDAIGS gave a growth estimate of under -0.253. For GRGTASMRAGGMDTASAGLP, the growth estimate was under -0.25. GRH showed a growth estimate of under -0.25. Work on GRHAQRRLKSGIAIENKGHP yielded a growth estimate of under -0.25. GRHVDIGVGGPPRRFSR gave a growth estimate of under -0.25. Substance GRICNESIARLSGAIPYCGF has a growth estimate of under -0.25. With GRIGMTLVECKRS the growth estimate was under -0.25. GRIGP showed a growth estimate of under -0.25. In the case of GRIKRNVSHPPPVKVSAHTP, the growth estimate is reported as under -0.25. Substance GRINE has a growth estimate of under -0.25. In the case of GRIRM, the growth estimate is reported as under -0.25. With GRIRNNCVDTTRIDRVDGIV the growth estimate was under -0.25. Substance GRKIHCRSERLRGQSERFAP has a growth estimate of under -0.25. GRKKPMSLGGIITDRTRFPP gave a growth estimate of under -0.25. In the case of GRLIINGHRAHRTLWERPPR, the growth estimate is reported as under -0.25. Substance GRLQLAARTLSSAI has a growth estimate of under -0.25. With GRLTPNNPISVCKQTNGGRP the growth estimate was under -0.25. In the case of GRLVETGGTTLFQHRCRST, the growth estimate is reported as under -0.25. GRLVFA showed a growth estimate of -0.126. With GRMR the growth estimate was -0.172. Substance GRNGNCTCGVLSNKDVPAHV has a growth estimate of under -0.25. Substance GRNGRHS has a growth estimate of under -0.25. In the case of GRNLPPADAGWPRTRRSSLV, the growth estimate is reported as under -0.25.
